Data published in patent publication US20250355001A1, “METHOD FOR DETECTING A TAU PROTEIN FRAGMENT IN A SAMPLE” (GTINVENT LIMITED, priority 2022, published 2025).
No constants are given. Whether binding was seen depends on the method and setting. Some results given as binding are weak or reduced against the parent protein; the word gives no strength.

By UniProt entry, the sequences of proteins in these tests, tags left out. Where a name states a change or a piece, a line headed by the entry shows the natural chain unless it says otherwise.
UniProt P10636: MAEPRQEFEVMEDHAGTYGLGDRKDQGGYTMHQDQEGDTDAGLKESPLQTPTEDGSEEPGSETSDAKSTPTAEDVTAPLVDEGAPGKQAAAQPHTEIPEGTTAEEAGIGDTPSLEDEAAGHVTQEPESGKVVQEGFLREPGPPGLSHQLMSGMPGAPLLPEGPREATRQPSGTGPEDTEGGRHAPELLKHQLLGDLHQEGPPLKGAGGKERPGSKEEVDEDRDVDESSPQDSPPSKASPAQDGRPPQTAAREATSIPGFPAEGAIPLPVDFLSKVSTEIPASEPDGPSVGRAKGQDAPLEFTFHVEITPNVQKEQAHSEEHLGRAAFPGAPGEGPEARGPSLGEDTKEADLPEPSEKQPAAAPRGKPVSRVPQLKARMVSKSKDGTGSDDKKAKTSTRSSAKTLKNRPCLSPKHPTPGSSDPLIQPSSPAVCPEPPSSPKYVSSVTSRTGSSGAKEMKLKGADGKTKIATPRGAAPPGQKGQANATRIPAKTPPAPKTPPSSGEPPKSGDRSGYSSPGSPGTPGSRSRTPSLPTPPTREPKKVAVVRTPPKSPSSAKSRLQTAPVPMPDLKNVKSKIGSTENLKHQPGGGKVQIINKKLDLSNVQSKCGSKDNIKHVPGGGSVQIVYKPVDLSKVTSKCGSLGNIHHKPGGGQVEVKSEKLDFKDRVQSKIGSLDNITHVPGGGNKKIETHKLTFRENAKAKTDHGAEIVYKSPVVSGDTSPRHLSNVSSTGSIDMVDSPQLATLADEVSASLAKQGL
UniProt P10637: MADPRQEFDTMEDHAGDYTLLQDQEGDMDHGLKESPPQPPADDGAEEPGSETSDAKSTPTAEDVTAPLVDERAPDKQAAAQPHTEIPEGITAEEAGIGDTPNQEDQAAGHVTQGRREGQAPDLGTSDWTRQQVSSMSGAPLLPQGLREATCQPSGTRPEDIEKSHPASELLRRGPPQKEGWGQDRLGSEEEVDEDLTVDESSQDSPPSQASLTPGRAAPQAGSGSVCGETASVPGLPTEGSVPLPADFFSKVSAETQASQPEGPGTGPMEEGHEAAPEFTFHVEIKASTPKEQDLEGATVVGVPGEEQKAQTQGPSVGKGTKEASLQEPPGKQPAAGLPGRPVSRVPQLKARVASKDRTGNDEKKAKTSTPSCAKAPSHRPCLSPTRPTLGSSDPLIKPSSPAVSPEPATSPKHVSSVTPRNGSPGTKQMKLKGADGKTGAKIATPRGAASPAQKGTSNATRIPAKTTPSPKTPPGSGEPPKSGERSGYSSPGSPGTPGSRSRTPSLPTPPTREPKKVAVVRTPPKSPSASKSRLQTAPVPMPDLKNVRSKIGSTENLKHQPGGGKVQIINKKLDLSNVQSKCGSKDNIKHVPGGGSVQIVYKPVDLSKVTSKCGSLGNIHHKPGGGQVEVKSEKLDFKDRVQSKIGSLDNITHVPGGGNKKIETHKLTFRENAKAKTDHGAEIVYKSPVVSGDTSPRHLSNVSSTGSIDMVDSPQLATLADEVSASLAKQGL

Assays:
[1] = molecular target: tau fragment 266-359 (R1-3) (human) (UniProt P10636); assay: direct ELISA
[2] = molecular target: tau fragment 266-359 (R1-3) (human) (UniProt P10636); assay: ELISA
[3] = molecular target: human tau fragment 296-390 of Line 1 mice (human) (UniProt P10636); assay: Western blot
[4] = molecular target: mouse tau (mouse) (UniProt P10637); assay: Western blot

Row | binding [1] | binding [2] | binding [3] | binding [4] | Binder
1 | binds | binds |  |  | CE3 scAb (scFv, not shown: small tags and cut ends) scFv: QVRLQESGPSLVKPSQTLSVTCTVSGFSLISNAVGWVRQAPGKVPESLAGCSSDGKCYYNSALKSRLDITRDTSKNQISLSLSSVTTDDAAVYYCTRGYYPVYGYDYLGTIDYWGPGLLVTVSSEGKSSGASGESKVDDQAVLTQPSSVSGSLGQRVSITCSGSSSNVGRNDVAWFQQLPGSGLRTIIYGTTSRPSGIPDRFSGSKSGVTATLTIDSLQAEDEADYFCASGDSSAINDIFGSGTRLTVLG
2 |  |  | binds | binds | S1G2 mAb (antibody, mouse IgG2a, V domains shown) VH: QVQLQESGPSLVKPSQTLSLTCTVSGFSLTSNSVGWVRQAPGKAPEWVAGIDTDGEEGYNPALNSRLSITRDTSKSQVSLSLSSVTSEDTAVYYCGRSYRADGLAYGYVQAIDYWGPGLLVTVSS VL: QAVVTQPSSVSGSLGQRVSITCSGSFIGISSVGWFQQLPGSGLRTIIVASDGRPSGVPDRFSMSKSGNTATLTISSLQAEDEADYFCGSSDRTPYTGVFGSGTRLTVLG
3 | binds | binds |  |  | CE2 scAb (scFv, not shown: small tags and cut ends) scFv: QVQLQESGPSLVKPSQTLSLTCTVSGFSLTNYPVGWVRQAPGKALEWIGNIENDGSANYASALKSRLSITRDTSKNQVSLSLSSATTEDTAVYYCGREFGGSDGYTYFVDIDYWGPGLLVTVSSEGKSSGASGESKVDDQAVLTQPSSVSKSLGQSVSITCSGSSSNVGYGNYVSWFQQVPGSAPKILIYGATSRASGVPDRFSGSRSGNTATLTITSLQAEDEADYYCASYDGSSSGVFGSGTRLTVLG

More lines, now with the values behind:

Row | Binder | binding [1] | binding [2] | binding [3] | binding [4]
4 | S1D12 scAb (scFv, not shown: small tags and cut ends) scFv: QVQLQESGPSLVKPSQTLSLTCTVSGFSLNNNAVGWVRQAPGKVPESLVGCSSDGTCYYNSALKSRLDITRDTSKNQISLSLSSVTTDDAAVYYCTRGHYSIYGYDYLGTIDYWGPGLLVTVSSEGKSSGASGESKVDDQAVLTQPSSVSGSLGQRVSITCSGSSSNVGGGNSVGWYQHLPGSGLKTIIYDTNSRPSGVPDRFSGSRSGNTATLTINSLQAEDEGDYYCVTGDSTTHDDLVGSGTRLTVLG | binds | binds |  | 
5 | S1D12 mAb (antibody, mouse IgG2a, V domains shown) VH: QVQLQESGPSLVKPSQTLSLTCTVSGFSLNNNAVGWVRQAPGKVPESLVGCSSDGTCYYNSALKSRLDITRDTSKNQISLSLSSVTTDDAAVYYCTRGHYSIYGYDYLGTIDYWGPGLLVTVSS VL: QAVLTQPSSVSGSLGQRVSITCSGSSSNVGGGNSVGWYQHLPGSGLKTIIYDTNSRPSGVPDRFSGSRSGNTATLTINSLQAEDEGDYYCVTGDSTTHDDLVGSGTRLTVLG |  |  |  | binds
